Results are given in words; binding and its absence hold for the method and conditions named. In cells and extracts the contact can be indirect. These calls come from enrichment with a bait or labelling near it, and not all partners need be listed.
Target: Flag-HNF1B (Hepatocyte Nuclear Factor 1β) (UniProt P35680)
Assay: affinity purification with mass spectrometry; cell lysate incubated with the marker antibody 3 h at 4°C, protein A-Sepharose beads 1 h at 4°C, washed five times with NETN buffer; gel piece with the FLAG-HNF1B complex digested with trypsin, LC-MS/MS

Sequences of proteins named here, by UniProt entry; tags and fusion partners are left off. A change or cut given only in a name is not applied to a line headed by its entry.
UniProt P35680: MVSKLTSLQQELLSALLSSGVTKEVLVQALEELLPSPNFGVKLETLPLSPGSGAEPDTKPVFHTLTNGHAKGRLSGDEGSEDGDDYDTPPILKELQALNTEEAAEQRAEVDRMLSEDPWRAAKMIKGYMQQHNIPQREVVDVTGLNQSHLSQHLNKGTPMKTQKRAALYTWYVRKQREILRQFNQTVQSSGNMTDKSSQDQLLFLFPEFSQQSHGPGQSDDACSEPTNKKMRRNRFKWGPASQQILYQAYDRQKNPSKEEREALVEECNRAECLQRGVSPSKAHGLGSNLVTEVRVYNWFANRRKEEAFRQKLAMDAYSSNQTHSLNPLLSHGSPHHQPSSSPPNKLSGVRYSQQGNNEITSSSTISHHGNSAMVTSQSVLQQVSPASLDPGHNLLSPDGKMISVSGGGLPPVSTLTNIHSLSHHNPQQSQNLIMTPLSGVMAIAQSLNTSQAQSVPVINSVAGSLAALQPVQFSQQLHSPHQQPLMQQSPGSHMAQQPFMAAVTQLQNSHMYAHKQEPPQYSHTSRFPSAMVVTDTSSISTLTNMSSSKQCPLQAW
UniProt Q8N726: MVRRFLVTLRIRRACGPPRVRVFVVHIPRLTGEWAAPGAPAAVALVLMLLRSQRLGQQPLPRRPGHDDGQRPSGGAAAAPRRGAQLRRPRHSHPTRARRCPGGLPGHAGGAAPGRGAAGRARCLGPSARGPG

## CDKN2A found in the FLAG-HNF1B immunoprecipitate (from UniProt Q8N726)
  binding: binds

Reference: paper PMC7754016
